Data on one molecule can be found in article doi:10.1101/2025.09.29.679137.

Results are given in words; binding and its absence hold for the method and conditions named. Binding seen in cells or lysates may run through a third protein. Some entries that bind do so weakly or less than the wild type.

For the assay, the target named is T1, NEPN (bait of the immunoprecipitations from tumor lysates and from the liver metastasis site) (mouse) (UniProt Q9CQ76).
T1 sequence: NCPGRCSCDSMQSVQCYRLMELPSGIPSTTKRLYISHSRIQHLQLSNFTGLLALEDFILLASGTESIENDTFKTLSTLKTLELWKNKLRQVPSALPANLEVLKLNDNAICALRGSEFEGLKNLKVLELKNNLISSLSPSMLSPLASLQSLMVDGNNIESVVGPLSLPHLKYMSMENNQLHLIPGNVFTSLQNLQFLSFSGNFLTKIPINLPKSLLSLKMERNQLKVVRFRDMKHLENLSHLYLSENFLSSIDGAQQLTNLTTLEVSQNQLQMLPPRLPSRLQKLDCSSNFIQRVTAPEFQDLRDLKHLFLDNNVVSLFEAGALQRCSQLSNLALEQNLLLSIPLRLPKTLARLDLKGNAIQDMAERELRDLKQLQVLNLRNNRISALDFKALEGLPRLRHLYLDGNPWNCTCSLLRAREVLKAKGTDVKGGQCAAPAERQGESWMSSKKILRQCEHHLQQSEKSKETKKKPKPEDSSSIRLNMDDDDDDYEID
Nature of the assay: co-IP.

B1: IL-10 (ligand, UniProt P18893 19-178)
chain: SRGQYSREDNNCTHFPVGQSHMLLELRTAFSQVKTFFQTKDQLDNILLTDSLMQDFKGYLGCQALSEMIQFYLVEVMPQAEKHGPEIKEHLNSLGEKLKTLRMRLRRCHRFLPCENKSKAVEQVKSDFNKLQDQGVYKAMNEFDIFINCIEAYMMIKMKS
As to B1, the binding result was “binds”.
